# Record: PubChem BioAssay AID504786 (Drosophila RNAi Screening Center, 2011)
# Test: 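Positive regulators of HIF-driven reporter output in Drosophila cells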 (primary screen)
# System: Drosophila S2 cells with a stable HIF luciferase reporter
# Knock-down reagent: long dsRNA against Drosophila genes, about 0.2 µg dsRNA per well of a 384-well plate
# Time to read-out: three days of knock-down, then 20 h of DFO before reading
# Challenge: desferrioxamine (DFO) at 100 µM, an iron chelator that mimics hypoxia, for 20 h
# Measured: 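Firefly luciferase driven by the mouse ldh-a hypoxia-response element, measured after 20 h of 100 µM DFO; z-scores per plate, higher means more signal lost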
# Scale: z-score: higher = stronger loss of HIF reporter signal
# The screen tested about 21,000 reagents; below is a random part of those that have a named target and a result. 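Primary screen; positive scores mean lost reporter signal, so the sign may be inverted from the usual convention.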 Names joined by + are all predicted targets of the reagent.
The opening 4 entries as a preview:
Gene,amplicon,"z-score, replicate 1","z-score, replicate 2","z-score, replicate 3","z-score, replicate 4"
Tap42 (GeneID 326166),DRSC02967,-0.5,-0.8,,
CG34135 + Nasp,DRSC16397,0.6,0.8,,
Ir7b (GeneID 31690),DRSC18009,0,0.5,,
CG33169 (GeneID 40504),DRSC11853,-0.3,-0.6,,

The list itself, from the first entry:
Gene,amplicon,"z-score, replicate 1","z-score, replicate 2","z-score, replicate 3","z-score, replicate 4"
Tap42 (GeneID 326166),DRSC02967,-0.5,-0.8,,
CG34135 + Nasp,DRSC16397,0.6,0.8,,
Ir7b (GeneID 31690),DRSC18009,0,0.5,,
CG33169 (GeneID 40504),DRSC11853,-0.3,-0.6,,
CG32809 (GeneID 31121),DRSC18507,0,0,0.8,-0.2
CG32809 (GeneID 31121),DRSC18562,-0.1,-0.6,,
CG32809 (GeneID 31121),DRSC18592,0,-0.1,,
CaBP1 (GeneID 34976),DRSC01984,-0.3,-0.4,,
p (GeneID 41025),DRSC16560,-0.3,0.5,,
Cby (GeneID 42574),DRSC14591,0.3,-0.4,,
CG14625 (GeneID 31066),DRSC18633,-0.4,-0.2,,
Xport-A + Xport-B,DRSC15586,-0.2,-0.7,,
osp (GeneID 34850),DRSC01409,-0.2,-0.5,,
osp (GeneID 34850),DRSC03585,0.1,0.7,,
CG18265 (GeneID 39947),DRSC10310,-0.1,0.6,,
Bdbt (GeneID 42503),DRSC15218,0.4,-0.7,,
ssp (GeneID 39375),DRSC10252,-0.1,-0.1,,
CG33012 (GeneID 36342),DRSC06287,-0.2,0,,
CG33012 (GeneID 36342),DRSC06288,-0.4,-0.2,,
CG13532 (GeneID 37632),DRSC04174,-0.3,-0.4,,
Usf (GeneID 31384),DRSC18129,-0.3,-0.6,,
CG11854 (GeneID 43037),DRSC14409,-0.2,-0.4,,
Gr64f (GeneID 117477),DRSC08447,-0.1,0,,
CG15369 (GeneID 31862),DRSC18041,-0.2,-0.1,,
CG31058 (retired record) (GeneID 43320),DRSC15840,-0.5,0.1,,
ksh (GeneID 50363),DRSC19554,-0.4,-0.3,,
Chc (GeneID 32537),DRSC20229,-0.5,-0.8,,
CG2082 (GeneID 40713),DRSC12125,-0.4,-0.7,,
kuz (GeneID 34772),DRSC03555,-0.3,0.2,,
Tango9 (GeneID 41450),DRSC14173,-0.1,-0.2,,
Eig71Ej (GeneID 39711),DRSC11157,-0.1,-0.6,,
CG4009 (GeneID 42054),DRSC15536,-0.2,0.2,,
Naxe (GeneID 31944),DRSC18251,-0.3,-0.8,,
CG3640 (GeneID 37942),DRSC04399,-0.3,-0.6,,
CG6980 (GeneID 42955),DRSC16162,-0.3,-0.4,,
sinu (GeneID 46187),DRSC09752,-0.6,-0.4,,
Cad88C (GeneID 41774),DRSC15486,-0.3,0.1,,
cGlr2 (GeneID 246606),DRSC04017,-0.2,-0.1,,
Syx1A (GeneID 42854),DRSC15359,0.9,-0.7,,
CG1146 (GeneID 38313),DRSC08189,-0.2,-0.3,,
CG8089 (GeneID 36679),DRSC07074,-0.2,-0.6,,
CG10126 (GeneID 41579),DRSC14191,-0.1,0,,
CG4953 (GeneID 34373),DRSC02792,-0.2,-0.7,,
ninaA (GeneID 33271),DRSC00830,-0.3,-0.8,,
glob3 (GeneID 40726),DRSC12261,0.1,-0.2,,
dsf (GeneID 33823),DRSC03524,-0.3,0,,
CG34458 (GeneID 5740868),DRSC06925,-0.2,0.7,,
CG7300 (GeneID 34472),DRSC03044,-0.4,-0.5,,
CG15368 (GeneID 31861),DRSC18040,-0.3,0.7,,
Nbr (GeneID 35385),DRSC03166,-0.1,0,,
CG18540 (GeneID 37097),DRSC06767,-0.2,-0.2,,
ND-24L (GeneID 39926),DRSC10650,0,-0.1,,
CG46339 (GeneID 44359),DRSC14136,-0.3,-0.1,,
CG31960 (GeneID 319047),DRSC00281,-0.2,-0.2,,
CG16998 (GeneID 38847),DRSC10235,-0.2,-0.3,,
okr (GeneID 33507),DRSC00834,-0.4,-0.4,,
Polr2C (GeneID 34796),DRSC03415,3,3.6,,
Cyp4aa1 (GeneID 36752),DRSC07368,-0.1,0.1,,
sub (GeneID 44870),DRSC06125,-0.1,0.3,,
CG33937 (retired record) (GeneID 50008),DRSC15148,-0.2,0.1,,
Msp300 (GeneID 3771968),DRSC00854,0.4,0,,
Msp300 (GeneID 3771968),DRSC00856,-0.3,-0.3,,
Msp300 (GeneID 3771968),DRSC00857,-0.3,-0.6,,
Msp300 (GeneID 3771968),DRSC00858,1,0.2,,
Msp300 (GeneID 3771968),DRSC02360,-0.1,0.1,,
Msp300 (GeneID 3771968),DRSC03369,-0.4,-0.7,,
Msp300 (GeneID 3771968),DRSC03370,-0.3,-0.3,,
CG10365 (GeneID 42801),DRSC14234,-0.3,-0.7,,
CG6013 (GeneID 42286),DRSC15947,-0.3,-0.5,,
Hibch (GeneID 41869),DRSC15705,0.9,0.5,,
kz (GeneID 31205),DRSC18786,0.4,2.2,,
hoip (GeneID 44173),DRSC03546,9.1,6.4,,
kumpel (GeneID 43136),DRSC14883,-0.3,-0.7,,
kumpel (GeneID 43136),DRSC16459,-0.4,-0.5,,
kumpel (GeneID 43136),DRSC16460,-0.4,-0.6,,
kumpel (GeneID 43136),DRSC16461,-0.2,-0.2,,
kumpel (GeneID 43136),DRSC16462,-0.3,-0.3,,
kumpel (GeneID 43136),DRSC16463,-0.5,-0.5,,
CG12560 (GeneID 34092),DRSC02174,-0.3,-0.2,,
Mettl2 (GeneID 38197),DRSC08398,-0.3,-0.2,,
Sema1a (GeneID 34192),DRSC03433,-0.3,-0.3,,
Rpp25 (GeneID 35574),DRSC05002,0,-0.2,,
CG42671 (GeneID 39268),DRSC09093,1.1,0.6,,
CG42671 (GeneID 39268),DRSC10321,-0.3,-0.3,,
